# Source: patent publication US12673084B2, “Compositions and methods for combinatorial drug discovery in nanoliter droplets” (The Broad Institute, Inc., priority 2017, dated 2026)
# Some results were stated once for a whole list of compounds, not compound by compound. Starred links: 1 amine or outer side, 2 acyl side, 3 side chain; linkers in the order of their positions; H or OH if unused. Non-standard residues stand in square brackets, D forms with d. Residues, ends and D or L forms follow the SMILES beside them. Groups on a side chain read outwards from the residue. *: point of attachment. Ethylenediamine = C(CN[*:2])N[*:1]; Hyp = O=C(O)[C@@H]1C[C@@H](O)CN1; Phg = N[C@H](C(=O)O)c1ccccc1; CO = O=C([*:1])[*:2]; Bn = c1ccc(C*)cc1
# Tested on: E. coli K-12 MG1655
# Conditions: against E. coli, checkerboard
row,Compound,FIC (synergy criterion) with at least one antibiotic
1,"Br.Br.NCCCCCNCC12CC3CC(CC(C3)C1)C2 [IEM 1754, 1-ammonio-5-(1-adamantane-methylammoniopentanedibromide)]",<= 0.5
2,"NCCCC[C@@H]1NC(=O)[C@@H](Cc2c[nH]c3ccccc23)NC(=O)[C@H](c2ccccc2)NC(=O)[C@@H]2C[C@@H](OC(=O)NCCN)CN2C(=O)[C@H](Cc2ccccc2)NC(=O)[C@H](Cc2ccc(OCc3ccccc3)cc2)NC1=O [Pasireotide, cyclo[{4-(NH2-C2H4-NH—CO—O-)Pro}-Phg-DTrp-Lys-Tyr(4-Bzl)-Phe]] (cyclo([Hyp]([CO-Ethylenediamine])[Phg][dW]KY(Bn)F))",<= 0.5
